According to publication PMC9654039, “FUS Microphase Separation: Regulation by Nucleic Acid Polymers and DNA Repair Proteins”:

Target: T1, FUS∆LCD (UniProt P35637)
T1 sequence (looked up): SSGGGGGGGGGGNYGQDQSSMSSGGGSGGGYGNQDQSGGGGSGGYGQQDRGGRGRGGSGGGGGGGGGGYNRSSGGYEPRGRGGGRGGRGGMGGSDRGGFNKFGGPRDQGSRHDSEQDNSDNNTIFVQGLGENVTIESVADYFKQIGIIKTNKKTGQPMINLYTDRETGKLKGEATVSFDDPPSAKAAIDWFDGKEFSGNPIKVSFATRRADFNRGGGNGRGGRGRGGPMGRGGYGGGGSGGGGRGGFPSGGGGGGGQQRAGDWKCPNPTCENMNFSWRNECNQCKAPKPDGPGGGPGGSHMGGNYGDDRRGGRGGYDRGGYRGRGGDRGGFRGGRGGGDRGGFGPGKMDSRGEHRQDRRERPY
Experiment: fluorescence titration (Cy3-protein intensity)
Conditions: apparent Kd, concentration as dNMP (nucleotides), not molecules, Hill fit n 3.32; concentrations are in nucleotide units. Poly(ADP-ribose); recombinant protein; residues 164-526; protein details: Cy3 label (sulfo-cyanine 3 NHS ester); single-stranded DNA

Sequence: GGGTTGGTTTGCGCATTCACAGTTCTCG [ssDNA (29 nt)]
- Kd: 1150 nM

Protein sequences can lack the tags named with them.
